Measured values: publication PMC8605363
No constants are given. Whether binding was seen depends on the method and setting. Binding seen in cells or lysates may run through a third protein. Some entries that bind do so weakly or less than the wild type.

Biological target: T1, Wilms' tumor 1-associating protein (human (endogenous in HUVEC)) (UniProt Q15007)
T1 sequence: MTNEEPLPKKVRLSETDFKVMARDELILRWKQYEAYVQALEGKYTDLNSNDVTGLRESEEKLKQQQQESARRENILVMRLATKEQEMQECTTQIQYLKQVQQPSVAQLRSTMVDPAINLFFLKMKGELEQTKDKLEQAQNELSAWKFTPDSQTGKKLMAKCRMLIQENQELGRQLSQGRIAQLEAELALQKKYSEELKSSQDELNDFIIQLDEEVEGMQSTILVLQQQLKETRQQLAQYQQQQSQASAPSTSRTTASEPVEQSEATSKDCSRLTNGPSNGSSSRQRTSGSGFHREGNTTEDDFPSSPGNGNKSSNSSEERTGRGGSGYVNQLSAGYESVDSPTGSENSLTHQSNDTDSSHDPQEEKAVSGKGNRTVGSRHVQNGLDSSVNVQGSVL
Assay: co-IP; immunoprecipitation and immunoblotting of CBLL1 and WTAP, in both directions (Fig. S5B); cells and conditions not told in the text shown

binding: binds
B1: CBLL1 (protein, UniProt Q75N03 1-491)
chain: MDHTDNELQGTNSSGSLGGLDVRRRIPIKLISKQANKAKPAPRTQRTINRMPAKAPPGDEEGFDYNEEERYDCKGGELFANQRRFPGHLFWDFQINILGEKDDTPVHFCDKCGLPIKIYGRMIPCKHVFCYDCAILHEKKGDKMCPGCSDPVQRIEQCTRGSLFMCSIVQGCKRTYLSQRDLQAHINHRHMRAGKPVTRASLENVHPPIAPPPTEIPERFIMPPDKHHMSHIPPKQHIMMPPPPLQHVPHEHYNQPHEDIRAPPAELSMAPPPPRSVSQETFRISTRKHSNLITVPIQDDSNSGAREPPPPAPAPAHHHPEYQGQPVVSHPHHIMPPQQHYAPPPPPPPPISHPMPHPPQAAGTPHLVYSQAPPPPMTSAPPPITPPPGHIIAQMPPYMNHPPPGPPPPQHGGPPVTAPPPHHYNPNSLPQFTEDQGTLSPPFTQPGGMSPGIWPAPRGPPPPPRLQGPPSQTPLPGPHHPDQTRYRPYYQ
